# Measured values taken from paper doi:10.1101/2023.05.24.542135.
# Chains of the proteins cited; added tags and fusions are not shown. Residues count along the entry.
# UniProt Q80TG9, residues 21-788: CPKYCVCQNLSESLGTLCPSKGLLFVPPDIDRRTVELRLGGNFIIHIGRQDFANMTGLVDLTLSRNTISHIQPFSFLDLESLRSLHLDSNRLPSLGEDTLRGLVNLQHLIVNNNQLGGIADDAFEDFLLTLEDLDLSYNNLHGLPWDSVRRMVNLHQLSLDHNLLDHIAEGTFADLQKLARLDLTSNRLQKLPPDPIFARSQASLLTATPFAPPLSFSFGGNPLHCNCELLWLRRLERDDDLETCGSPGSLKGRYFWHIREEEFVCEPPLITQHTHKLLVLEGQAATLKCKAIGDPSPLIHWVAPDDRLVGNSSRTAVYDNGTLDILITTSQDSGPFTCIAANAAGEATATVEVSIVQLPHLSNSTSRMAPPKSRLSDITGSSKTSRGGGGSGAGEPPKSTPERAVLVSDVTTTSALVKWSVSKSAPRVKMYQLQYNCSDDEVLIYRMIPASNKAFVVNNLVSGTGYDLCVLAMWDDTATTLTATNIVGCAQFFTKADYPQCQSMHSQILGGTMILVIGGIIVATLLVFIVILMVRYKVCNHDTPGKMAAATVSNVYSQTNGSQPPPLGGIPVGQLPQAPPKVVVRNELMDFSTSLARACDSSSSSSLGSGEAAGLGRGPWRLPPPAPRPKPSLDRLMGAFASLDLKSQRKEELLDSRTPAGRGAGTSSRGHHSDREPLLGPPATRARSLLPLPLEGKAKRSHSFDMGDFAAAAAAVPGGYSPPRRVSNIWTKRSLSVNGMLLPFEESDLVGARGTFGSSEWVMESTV
# UniProt Q2TV84: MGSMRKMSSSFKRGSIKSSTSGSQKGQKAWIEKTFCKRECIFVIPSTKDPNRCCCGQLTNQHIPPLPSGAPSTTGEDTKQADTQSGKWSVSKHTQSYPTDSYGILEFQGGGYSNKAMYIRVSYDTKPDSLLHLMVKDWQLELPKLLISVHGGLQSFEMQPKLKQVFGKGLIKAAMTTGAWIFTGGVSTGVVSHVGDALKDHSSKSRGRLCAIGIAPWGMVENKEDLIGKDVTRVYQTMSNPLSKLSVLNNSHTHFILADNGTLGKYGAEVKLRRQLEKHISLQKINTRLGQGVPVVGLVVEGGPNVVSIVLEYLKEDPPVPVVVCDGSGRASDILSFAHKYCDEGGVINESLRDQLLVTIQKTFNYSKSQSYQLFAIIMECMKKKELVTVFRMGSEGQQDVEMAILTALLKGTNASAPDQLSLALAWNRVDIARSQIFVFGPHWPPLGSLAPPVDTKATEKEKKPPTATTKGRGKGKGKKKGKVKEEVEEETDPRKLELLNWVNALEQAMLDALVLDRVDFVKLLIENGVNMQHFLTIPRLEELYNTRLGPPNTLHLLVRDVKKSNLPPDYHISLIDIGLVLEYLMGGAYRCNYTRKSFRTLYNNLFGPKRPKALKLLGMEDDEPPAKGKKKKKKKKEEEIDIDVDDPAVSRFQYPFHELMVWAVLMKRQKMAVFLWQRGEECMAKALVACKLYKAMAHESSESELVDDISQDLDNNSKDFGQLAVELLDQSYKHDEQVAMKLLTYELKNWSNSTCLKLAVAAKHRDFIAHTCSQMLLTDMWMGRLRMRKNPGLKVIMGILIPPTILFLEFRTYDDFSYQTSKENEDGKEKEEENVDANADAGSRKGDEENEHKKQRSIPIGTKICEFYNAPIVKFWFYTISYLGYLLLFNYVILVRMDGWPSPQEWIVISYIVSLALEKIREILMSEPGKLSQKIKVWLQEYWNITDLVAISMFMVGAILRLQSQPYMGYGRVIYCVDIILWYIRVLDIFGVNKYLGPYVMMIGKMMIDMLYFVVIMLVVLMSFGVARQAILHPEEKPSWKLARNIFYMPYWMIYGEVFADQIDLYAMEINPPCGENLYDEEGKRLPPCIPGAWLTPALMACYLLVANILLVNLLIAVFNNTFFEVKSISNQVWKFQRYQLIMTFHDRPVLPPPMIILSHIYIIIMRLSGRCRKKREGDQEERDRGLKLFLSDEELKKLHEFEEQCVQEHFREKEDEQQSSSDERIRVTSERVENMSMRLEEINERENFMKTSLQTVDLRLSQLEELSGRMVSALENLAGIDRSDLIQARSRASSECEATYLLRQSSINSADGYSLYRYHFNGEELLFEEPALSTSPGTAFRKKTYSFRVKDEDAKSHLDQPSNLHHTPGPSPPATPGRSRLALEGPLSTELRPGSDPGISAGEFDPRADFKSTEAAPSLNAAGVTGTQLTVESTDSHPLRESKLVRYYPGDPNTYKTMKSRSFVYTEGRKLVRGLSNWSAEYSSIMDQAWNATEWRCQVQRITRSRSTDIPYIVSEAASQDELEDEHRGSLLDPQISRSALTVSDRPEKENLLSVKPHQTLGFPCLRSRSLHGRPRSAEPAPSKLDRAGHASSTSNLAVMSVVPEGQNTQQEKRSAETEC
# These are yes or no findings as the source states them, for the method shown. Binding seen in cells or lysates may run through a third protein. Some binding calls cover weakened binding; strength is not graded here.
# Target: LRFN2 expressed from the PGK-LRFN2 plasmid (UniProt Q80TG9)
# Experiment: co-IP
substance,measurement,value
TRPM1 expressed from the CMV-TRPM1 plasmid (from UniProt Q2TV84 1-1622),binding,binds
